Laboratory results: PubChem BioAssay AID720710 (VTT Finland, 2013)
Assay: 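Genes whose loss lowers DNA synthesis when an oncogene drives replication stress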 (primary screen). System: human U-2 OS bone cancer cells, parental and a cyclin E (CCNE1) overexpressing line. Reagents: single siRNA against human genes, 1 µM siRNA in the printed spot mix. Time to read-out: 67 h. Challenge: half the arrays: hydroxyurea 2 mM for 16 h, then 3 h recovery; other arrays untreated. Detection: 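EdU click signal imaged per DAPI-stained nucleus at 67 h; each spot divided by its subgrid median, then z-scored relative to non-targeting control spots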. Direction: EdU z-score, cyclin E line, hydroxyurea: higher = more DNA synthesis than non-targeting controls.
This is an unselected part of about 1,380 reagents tested. 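One array per condition without replicates; hydroxyurea arrays received 2 mM for 16 h plus 3 h recovery.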 Reagents against one gene are numbered here. Not all columns of the deposit are shown.

EdU z-score, cyclin E line, hydroxyurea, by gene knocked down and reagent
RBM38 (GeneID 55544): #1 -1.34; #2 -0.832
SMARCC2 (GeneID 6601): #1 -1.39; #2 0.165
ADAR (GeneID 103): #1 -2.34; #2 1.35
CHRAC1 (GeneID 54108): #1 0.629; #2 1.02
SMC5 (GeneID 23137): #1 -0.433; #2 -0.427
OGG1 (GeneID 4968): #1 -1.19; #2 0.618
FANCD2 (GeneID 2177): #1 -0.76; #2 1.01
NT5M (GeneID 56953): #1 0.044; #2 2
UBE2V2 (GeneID 7336): #1 0.135; #2 1.17
TDP1 (GeneID 55775): #1 -1.21; #2 1.28
MCM7 (GeneID 4176): #1 -2.65; #2 -0.178
MCM6 (GeneID 4175): #1 0.406; #2 0.624
H1-5 (GeneID 3009): #1 -2; #2 0.642
TENT4A (GeneID 11044): #1 -0.543; #2 -0.263
MSH5 (GeneID 4439): #1 -0.393; #2 0.287
SATB1 (GeneID 6304): #1 -1.65; #2 -1.27
LATS1 (GeneID 9113): #1 0.405; #2 1.16
GMNN (GeneID 51053): #1 -1.13; #2 -1.04
SOX15 (GeneID 6665): #1 0.612; #2 0.809
KCTD13 (GeneID 253980): #1 -0.253; #2 0.647
MSH6 (GeneID 2956): #1 -2.61; #2 -0.0152
CENPH (GeneID 64946): #1 -1.04; #2 1.47
SATB2 (GeneID 23314): #1 -1.39; #2 -0.16
HDAC3 (GeneID 8841): #1 0.225; #2 1.76
SUMO1 (GeneID 7341): #1 -0.81; #2 -0.776
HMGN2 (GeneID 3151): #1 -2.32; #2 -1.06
BCL6 (GeneID 604): #1 -0.175; #2 1.58
CDC34 (GeneID 997): #1 -1.04; #2 0.211
CDKN2D (GeneID 1032): #1 -0.249; #2 1

Ordered by “EdU z-score, cyclin E line, hydroxyurea” (highest first): some entries from above.
gene knocked down	siRNA no.	EdU z-score, cyclin E line, hydroxyurea
HDAC3 (GeneID 8841)	2	1.76
CENPH (GeneID 64946)	2	1.47
HDAC3 (GeneID 8841)	1	0.225
MSH6 (GeneID 2956)	2	-0.0152
SATB2 (GeneID 23314)	2	-0.16
SUMO1 (GeneID 7341)	1	-0.81
CENPH (GeneID 64946)	1	-1.04
SATB2 (GeneID 23314)	1	-1.39
MSH6 (GeneID 2956)	1	-2.61
